Taken from: PubChem BioAssay AID1508588 (Peter MacCallum Cancer Centre, 2020)

- Aim: 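Knock-downs boosting vemurafenib effects on melanoma cell growth or lactate release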 (primary screen)
- Cell system: human WM266.4 melanoma cells (BRAF V600 mutant)
- Reagents: siRNA pool against human genes, 40 nM
- Duration: 96 h from transfection to read-out
- Conditions: vemurafenib 300 nM (about IC25), added 48 h after transfection, for 48 h; comparison arm got DMSO vehicle only
- Measured: 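Cell gain (DAPI nuclei at end minus before drug, mean of two replicates) and medium lactate by absorbance per cell, both as ratio to non-targeting siRNA, also grouped into fold-change classes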
- Reading the numbers: cell gain with vemurafenib: higher = more cell gain than with non-targeting siRNA; lactate per cell with vemurafenib: higher = more lactate made per cell
- Call rule: 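Enhancement is called by pairing each knock-down's vehicle-arm and drug-arm fold-change classes for viability or glycolysis; which class combinations qualify is not given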
- Meaning of the calls: active = enhances vemurafenib effect; inactive = no enhancement seen
The deposit covers about 18,000 reagents; shown is a random part of them. Over the whole deposit, 790 (4.4%) got an active call. 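Calls rest on a combination of fold-change classes in drug and vehicle arms, not all shown here.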

For PTGIS (prostaglandin I2 synthase), what does the deposit list?
cell gain with vemurafenib: 0.81; lactate per cell with vemurafenib: 0.76; Call: inactive

For SHROOM3 (shroom family member 3), what was measured?
cell gain with vemurafenib: 0.44; lactate per cell with vemurafenib: 1.44; Call: inactive

With B3GNT8, what does the deposit list?
cell gain with vemurafenib: 0.55; lactate per cell with vemurafenib: 0.76; Call: inactive

Which result is listed for MFSD2B (MFSD2 lysolipid transporter B, sphingolipid)?
cell gain with vemurafenib: 0.52; lactate per cell with vemurafenib: 1.42; Call: inactive

What did the screen give for FLG (filaggrin)?
cell gain with vemurafenib: -0.03; lactate per cell with vemurafenib: 0.61; Call: inactive

With TBCD (tubulin folding cofactor D), what does the deposit list?
cell gain with vemurafenib: 0.35; lactate per cell with vemurafenib: 1.75; Call: inactive

What did the screen give for PHF5A (PHD finger protein 5A)?
cell gain with vemurafenib: 1.03; lactate per cell with vemurafenib: 0.84; Call: inactive

How did the screen score STEEP1 (STING1 ER exit protein 1)?
cell gain with vemurafenib: 0.6; lactate per cell with vemurafenib: 0.39; Call: inactive

Which result is listed for RGMA (repulsive guidance molecule BMP co-receptor a)?
cell gain with vemurafenib: 0.41; lactate per cell with vemurafenib: 0.32; Call: inactive

With SLC7A6, what does the deposit list?
cell gain with vemurafenib: 1.13; lactate per cell with vemurafenib: 0.55; Call: inactive

For OSR2 (odd-skipped related transciption factor 2), what was measured?
cell gain with vemurafenib: 0.89; lactate per cell with vemurafenib: 1.21; Call: inactive

How did the screen score JPH4 (junctophilin 4)?
cell gain with vemurafenib: 1.41; lactate per cell with vemurafenib: 0.58; Call: inactive

With EFHB (EF-hand domain family member B), what does the deposit list?
cell gain with vemurafenib: 0.32; lactate per cell with vemurafenib: 1.48; Call: inactive

What is on record for NEMP1 (nuclear envelope integral membrane protein 1)?
cell gain with vemurafenib: 0.46; lactate per cell with vemurafenib: 1.14; Call: inactive

What did the screen give for EIF2A (eukaryotic translation initiation factor 2A)?
cell gain with vemurafenib: 0.5; lactate per cell with vemurafenib: 1.7; Call: inactive

With LRRC25 (leucine rich repeat containing 25), how do the results read?
cell gain with vemurafenib: 0.46; lactate per cell with vemurafenib: 1.27; Call: inactive

How did the screen score GNG5 (G protein subunit gamma 5)?
cell gain with vemurafenib: 0.91; lactate per cell with vemurafenib: 1.81; Call: inactive

What is on record for CFHR3 (complement factor H related 3)?
cell gain with vemurafenib: 0.74; lactate per cell with vemurafenib: 0.94; Call: inactive

How did the screen score UGT1A1 (UDP glucuronosyltransferase family 1 member A1)?
cell gain with vemurafenib: 0.59; lactate per cell with vemurafenib: 1.61; Call: inactive

Which result is listed for PEX16 (peroxisomal biogenesis factor 16)?
cell gain with vemurafenib: 0.46; lactate per cell with vemurafenib: 1.56; Call: inactive

What did the screen give for NOXRED1 (NADP dependent oxidoreductase domain containing 1)?
cell gain with vemurafenib: 0.76; lactate per cell with vemurafenib: 0.34; Call: inactive

For OVOS2P (ovostatin 2, pseudogene), what was measured?
cell gain with vemurafenib: 0.27; lactate per cell with vemurafenib: 0.98; Call: inactive

How did the screen score OR8S1 (olfactory receptor family 8 subfamily S member 1)?
cell gain with vemurafenib: 0.56; lactate per cell with vemurafenib: 0.63; Call: inactive

How did the screen score PMEL (premelanosome protein)?
cell gain with vemurafenib: 0.67; lactate per cell with vemurafenib: 1.1; Call: inactive

How did the screen score FOXP3 (forkhead box P3)?
cell gain with vemurafenib: 0.24; lactate per cell with vemurafenib: 1.75; Call: inactive

Which result is listed for CRACR2B (calcium release activated channel regulator 2B)?
cell gain with vemurafenib: 0.65; lactate per cell with vemurafenib: 0.48; Call: inactive

What is on record for KMT5A (lysine methyltransferase 5A)?
cell gain with vemurafenib: 0.43; lactate per cell with vemurafenib: 1.7; Call: inactive

What did the screen give for TRIM52 (tripartite motif containing 52)?
cell gain with vemurafenib: 0.94; lactate per cell with vemurafenib: 0.88; Call: inactive

With GNB4 (G protein subunit beta 4), how do the results read?
cell gain with vemurafenib: 0.39; lactate per cell with vemurafenib: 1.36; Call: inactive

How did the screen score TRAPPC6A (trafficking protein particle complex subunit 6A)?
cell gain with vemurafenib: 0.88; lactate per cell with vemurafenib: 0.6; Call: inactive

With ORC3 (origin recognition complex subunit 3), how do the results read?
cell gain with vemurafenib: 0.39; lactate per cell with vemurafenib: 0.77; Call: inactive

What is on record for HOXC4 (homeobox C4)?
cell gain with vemurafenib: 0.72; lactate per cell with vemurafenib: 0.76; Call: inactive

With SLC25A53, how do the results read?
cell gain with vemurafenib: 0.83; lactate per cell with vemurafenib: 0.86; Call: inactive

For RFWD3 (ring finger and WD repeat domain 3), what was measured?
cell gain with vemurafenib: 0.43; lactate per cell with vemurafenib: 1.2; Call: inactive

With CHEK1 (checkpoint kinase 1), what does the deposit list?
cell gain with vemurafenib: 0.25; lactate per cell with vemurafenib: 1.9; Call: inactive

How did the screen score SCN8A (sodium voltage-gated channel alpha subunit 8)?
cell gain with vemurafenib: 1; lactate per cell with vemurafenib: 0.64; Call: inactive

With ZNF215 (zinc finger protein 215), how do the results read?
cell gain with vemurafenib: 0.82; lactate per cell with vemurafenib: 0.69; Call: inactive

Which result is listed for AGR2?
cell gain with vemurafenib: 0.61; lactate per cell with vemurafenib: 1.6; Call: inactive

With AGPAT3 (1-acylglycerol-3-phosphate O-acyltransferase 3), what was measured?
cell gain with vemurafenib: 0.65; lactate per cell with vemurafenib: 1; Call: inactive

For PARL (presenilin associated rhomboid like), how do the results read?
cell gain with vemurafenib: 0.4; lactate per cell with vemurafenib: 0.29; Call: inactive

With PGRMC2 (progesterone receptor membrane component 2), how do the results read?
cell gain with vemurafenib: 0.75; lactate per cell with vemurafenib: 0.94; Call: inactive

With DCN (decorin), what was measured?
cell gain with vemurafenib: 0.88; lactate per cell with vemurafenib: 0.84; Call: inactive

What did the screen give for ATF2 (activating transcription factor 2)?
cell gain with vemurafenib: 0.45; lactate per cell with vemurafenib: 0.52; Call: inactive

With BYSL (bystin like), what was measured?
cell gain with vemurafenib: 0.35; lactate per cell with vemurafenib: 2.08; Call: inactive

With RHPN2 (rhophilin Rho GTPase binding protein 2), how do the results read?
cell gain with vemurafenib: 0.83; lactate per cell with vemurafenib: 0.96; Call: inactive

For GSDMD (gasdermin D), what does the deposit list?
cell gain with vemurafenib: 1.1; lactate per cell with vemurafenib: 0.62; Call: inactive

For UBE2R2 (ubiquitin conjugating enzyme E2 R2), what does the deposit list?
cell gain with vemurafenib: 0.85; lactate per cell with vemurafenib: 1; Call: inactive

Which result is listed for BAALC (BAALC binder of MAP3K1 and KLF4)?
cell gain with vemurafenib: 0.29; lactate per cell with vemurafenib: 1.59; Call: inactive

For SUSD6 (sushi domain containing 6), what does the deposit list?
cell gain with vemurafenib: 0.38; lactate per cell with vemurafenib: 1.51; Call: inactive

With EIF2S2 (eukaryotic translation initiation factor 2 subunit beta), what was measured?
cell gain with vemurafenib: 0.19; lactate per cell with vemurafenib: 1.69; Call: inactive

For NT5C1A (5'-nucleotidase, cytosolic IA), how do the results read?
cell gain with vemurafenib: 0.13; lactate per cell with vemurafenib: 0.8; Call: inactive

What did the screen give for APCDD1L (APC down-regulated 1 like)?
cell gain with vemurafenib: 0.08; lactate per cell with vemurafenib: 2.28; Call: inactive

Copied from the list.
Under “cell gain with vemurafenib”, NOXRED1 (NADP dependent oxidoreductase domain containing 1) has 0.76
TBCD (tubulin folding cofactor D), cell gain with vemurafenib → 0.35
For “Call”, SLC7A6 reads inactive
For “lactate per cell with vemurafenib”, RFWD3 (ring finger and WD repeat domain 3) reads 1.2
Under “Call”, PGRMC2 (progesterone receptor membrane component 2) shows inactive
